Assay results as given in patent publication US20100297675A1, “SUBSTRATE AND METHOD FOR CULTURING BREAST CELLS” (priority 2008, published 2010).
For at least one compound, name, drawing or mass did not settle the structure.

Experiments:
[1] = test system: MCF-7 malignant breast cells; assay: MCF-7 malignant cells cultured on 2D TCT culture surface, treated with inhibitor, confocal fluorescence imaging; type: cell-based; conditions: MCF-7 on TCT 2D surface; 4 μM on alternate days for 15 days; E-cadherin/DAPI stain; FIGS. 11A-C
Method: Differences in cellular morphology often contribute to differences in cellular function. To understand the difference of cellular functions between breast cells cultured in a porous substrate and on a 2D culture surface, 10,000 MCF-7 malignant cell were seeded and cultured in porous PDMS (as described in Example 1) and a TCT culture surface (tissue culture treated polystyrene, “TCT”, Coming Inc) under the same conditions. The cells were treated with 4 μM of PD98059 (MAPK inhibitor) and 4 μM of LY294002 (PI3K inhibitor) on alternate days for 15 days. […] In FIGS. 11A-C, the cells were stained for E-cadherin and counterstained with a DAPI nuclei stain. In FIG. 11A, untreated cells are shown at 14 days of culture. In FIG. 11B, cells treated with PD98059 are shown at 14 days of culture. In FIG. 11C, cells treated with LY294002 are shown at 14 days of culture. The green (E-cadherin) and blue (nuclei) stains cannot be seen in the black and white reproductions presented herein.

[2] = test system: MCF-7 malignant breast cells; assay: MCF-7 malignant cells cultured in porous PDMS substrate, treated with inhibitor, confocal fluorescence imaging; type: cell-based; conditions: MCF-7 in porous PDMS, 4 μM on alternate days for 15 days, F-actin/DAPI stain
Text: Porous polydimethylsiloxane (PDMS) substrates were generated by mixing a PDMS pre-polymer and a curing agent using the Sylgard 182 kit available from Dow Corning in a ratio of 10 to 1. The mixture was closely packed with sugar crystals of size ranging from 212-250 micrometers, which was then filled in a mold and cured at 100 degrees for one hour. The sugar in the cured polymer was washed out in an ultrasonic bath, forming porous PDMS substrates. The resulting porous PDMS was released from the mold and assembled into multi-well plate for cell culture. Malignant breast cells MCF-7 were seeded in wells having the porous PDMS substrates described in Example 1. 10,000 cells were seeded and cultured in EMEM cell culture medium with 10% Fetal Bovine Serum, 5% pen/strep, and 10 μg/ml of insulin. The medium was changed on alternate days. Following two weeks of culture, the cells were stained with Rhodamine phalloidin (F-actin staining) and DAPI nuclei counter stain and imaged with confocal fluorescence microscope as shown in FIG. 9. […] Differences in cellular morphology often contribute to differences in cellular function. […]

breast cancer cells = conditions: Matrigel 3D culture system; reported; cited from earlier work

SMILES: O=c1cc(N2CCOCC2)oc2c(-c3ccccc3)cccc12 [LY294002]
- noticeable difference for the cells cultured on TCT surface (reversion of malignant phenotype or other change) [1]: failed to induce noticeable difference
- colony size ([2]; FIGS. 12A-C): significantly reduced the colony size
- reversion of malignant phenotype (mass structure to acini structure) ([2]; FIGS. 13A-C): reversed malignant phenotype from mass structure to normal acini structure
- reversal of malignant behaviors of breast cancer cells (breast cancer cells): reverse malignant behaviors of breast cancer cells to certain degrees
